This assay deals with S100A10 (p11) (UniProt P60903). Put plainly: SPR; NBD1 amine-coupled on CM5 chip; p11 (400 µg/ml) and preincubated cPLA2α/ANXA1 (100 µg/ml each) sequentially co-injected, the complex before dissociation of p11; both purified.

Sequences of proteins named here, by UniProt entry; tags and fusion partners are left off.
UniProt P60903: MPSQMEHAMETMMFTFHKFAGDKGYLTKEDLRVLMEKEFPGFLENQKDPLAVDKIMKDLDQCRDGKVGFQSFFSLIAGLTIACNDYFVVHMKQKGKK

These are yes or no findings as the source states them, for the method shown. Some results given as binding are weak or reduced against the parent protein; the word gives no strength.

B1: cPLA2α/ANXA1 complex (preincubated) (complex, UniProt P47712 1-749; P46193 1-346)
chain 1: MSFIDPYQHIIVEHQYSHKFTVVVLRATKVTKGAFGDMLDTPDPYVELFISTTPDSRKRTRHFNNDINPVWNETFEFILDPNQENVLEITLMDANYVMDETLGTATFTVSSMKVGEKKEVPFIFNQVTEMVLEMSLEVCSCPDLRFSMALCDQEKTFRQQRKEHIRESMKKLLGPKNSEGLHSARDVPVVAILGSGGGFRAMVGFSGVMKALYESGILDCATYVAGLSGSTWYMSTLYSHPDFPEKGPEEINEELMKNVSHNPLLLLTPQKVKRYVESLWKKKSSGQPVTFTDIFGMLIGETLIHNRMNTTLSSLKEKVNTAQCPLPLFTCLHVKPDVSELMFADWVEFSPYEIGMAKYGTFMAPDLFGSKFFMGTVVKKYEENPLHFLMGVWGSAFSILFNRVLGVSGSQSRGSTMEEELENITTKHIVSNDSSDSDDESHEPKGTENEDAGSDYQSDNQASWIHRMIMALVSDSALFNTREGRAGKVHNFMLGLNLNTSYPLSPLSDFATQDSFDDDELDAAVADPDEFERIYEPLDVKSKKIHVVDSGLTFNLPYPLILRPQRGVDLIISFDFSARPSDSSPPFKELLLAEKWAKMNKLPFPKIDPYVFDREGLKECYVFKPKNPDMEKDCPTIIHFVLANINFRKYRAPGVPRETEEEKEIADFDIFDDPESPFSTFNFQYPNQAFKRLHDLMHFNTLNNIDVIKEAMVESIEYRRQNPSRCSVSLSNVEARRFFNKEFLSKPKA
chain 2: MAMVSEFLKQAWFIENEEQEYIKTVKGSKGGPGSAVSPYPTFNPSSDVEALHKAITVKGVDEATIIEILTKRNNAQRQQIKAAYLQEKGKPLDEVLKKALLGHLEEVVLALLKTPAQFDAEELRAAMKGLGTDEDTLNEILASRTNREIREINRVYREELKRDLAKDIASDTSGDYEKALLSLAKGDRSEELAVNDDLADSDARALYEAGERRKGTDVNVFITILTTRSYPHLRRVFQKYSKYSKHDMNKVLDLELKGDIEKCLTVIVKCATSQPMFFAEKLHQAMKGIGTRHKTLIRIMVSRSEIDMNDIKACYQKLYGISLCQAILDETKGDYEKILVALCGRD
Turning to B1, the binding result is recorded as “binds”.

(Values after paper PMC2760709.)
